The other results are listed elsewhere or left out. Hit calls seldom repeat between salt and free forms of one compound.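 Kinases, fused to nanoluciferase, were expressed in K562 cells; luminescence was measured every 4 h from 2 to 18 h as percent of control (DMSO = 100%, positive control = 0%). A time point is decreased if signal falls significantly (2 sigma). Hits were called by the authors by a rule that is not shown; the count of time points alone does not decide it.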
Columns and labels:
Experiment in all cases: number of time points (of 5) at which kinase-Nluc abundance scored as decreased, DMSO-normalised (count); higher = more persistent destabilization
Settings in all cases: K562; 2-18 h
FLT3 = FLT3 (UniProt P36888)
FYN = FYN (UniProt P06241)
GSK3A = GSK3A (UniProt P49840)
HER2 = HER2 (UniProt P04626)
INSRR = INSRR (UniProt P14616)
IRAK3 = IRAK3 (UniProt Q9Y616)
JAK1 = JAK1 (UniProt P23458)
LCK = LCK (UniProt P06239)
LIMK1 = LIMK1 (UniProt P53667)
LIMK2 = LIMK2 (UniProt P53671)
LMTK2 = LMTK2 (UniProt Q8IWU2)
LYN = LYN (UniProt P07948)
MAP2K1 = MAP2K1 (UniProt Q02750)
MAP2K2 = MAP2K2 (UniProt P36507)
MAP4K2 = MAP4K2 (UniProt Q12851)
MAPK1 = MAPK1 (UniProt P28482)
MAPK4 = MAPK4 (UniProt P31152)
MAPKAPK2 = MAPKAPK2 (UniProt P49137)
MKNK1 = MKNK1 (UniProt Q9BUB5)
NTRK2 = NTRK2 (UniProt Q16620)

Sequences of proteins named here, by UniProt entry; tags and fusion partners are left off. A change or cut given only in a name is not applied to a line headed by its entry.
UniProt P36888, whole entry: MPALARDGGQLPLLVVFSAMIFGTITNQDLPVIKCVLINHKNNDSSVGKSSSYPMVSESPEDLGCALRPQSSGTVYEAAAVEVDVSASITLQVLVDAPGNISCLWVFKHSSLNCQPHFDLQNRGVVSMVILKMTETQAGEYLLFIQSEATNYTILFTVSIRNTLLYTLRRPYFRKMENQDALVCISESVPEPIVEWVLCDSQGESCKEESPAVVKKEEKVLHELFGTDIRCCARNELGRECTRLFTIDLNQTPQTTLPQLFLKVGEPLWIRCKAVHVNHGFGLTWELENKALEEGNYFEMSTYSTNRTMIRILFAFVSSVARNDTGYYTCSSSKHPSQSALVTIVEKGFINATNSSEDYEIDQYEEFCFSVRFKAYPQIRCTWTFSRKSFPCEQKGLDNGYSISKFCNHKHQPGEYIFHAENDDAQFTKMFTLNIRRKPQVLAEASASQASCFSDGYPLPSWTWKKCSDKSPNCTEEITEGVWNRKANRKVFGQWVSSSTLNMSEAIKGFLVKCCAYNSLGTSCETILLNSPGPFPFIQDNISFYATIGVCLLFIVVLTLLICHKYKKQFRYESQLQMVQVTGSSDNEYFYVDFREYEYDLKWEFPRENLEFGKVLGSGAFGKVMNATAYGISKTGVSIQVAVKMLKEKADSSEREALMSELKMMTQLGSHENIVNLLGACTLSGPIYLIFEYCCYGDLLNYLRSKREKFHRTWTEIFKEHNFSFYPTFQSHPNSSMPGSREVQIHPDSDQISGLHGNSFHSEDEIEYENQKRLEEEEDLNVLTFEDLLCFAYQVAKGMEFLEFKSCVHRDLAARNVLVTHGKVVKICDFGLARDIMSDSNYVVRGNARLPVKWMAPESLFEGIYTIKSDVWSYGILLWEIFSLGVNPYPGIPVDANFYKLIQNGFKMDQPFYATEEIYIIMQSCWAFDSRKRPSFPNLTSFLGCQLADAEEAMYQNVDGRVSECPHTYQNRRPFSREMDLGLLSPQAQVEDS
UniProt P06241, whole entry, looked up: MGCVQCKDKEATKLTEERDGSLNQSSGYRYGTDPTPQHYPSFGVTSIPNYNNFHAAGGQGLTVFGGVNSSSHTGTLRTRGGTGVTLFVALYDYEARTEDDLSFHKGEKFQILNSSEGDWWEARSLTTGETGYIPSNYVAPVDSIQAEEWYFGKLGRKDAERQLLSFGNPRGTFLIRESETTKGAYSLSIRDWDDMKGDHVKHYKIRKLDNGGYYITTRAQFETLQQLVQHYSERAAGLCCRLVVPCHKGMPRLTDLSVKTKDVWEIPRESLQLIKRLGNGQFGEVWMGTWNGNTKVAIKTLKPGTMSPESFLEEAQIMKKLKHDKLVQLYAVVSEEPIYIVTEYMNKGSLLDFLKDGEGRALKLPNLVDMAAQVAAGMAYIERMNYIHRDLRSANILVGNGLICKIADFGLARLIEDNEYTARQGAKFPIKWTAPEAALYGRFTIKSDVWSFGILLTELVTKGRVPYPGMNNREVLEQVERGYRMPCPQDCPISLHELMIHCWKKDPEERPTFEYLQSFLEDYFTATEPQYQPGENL
UniProt P14616: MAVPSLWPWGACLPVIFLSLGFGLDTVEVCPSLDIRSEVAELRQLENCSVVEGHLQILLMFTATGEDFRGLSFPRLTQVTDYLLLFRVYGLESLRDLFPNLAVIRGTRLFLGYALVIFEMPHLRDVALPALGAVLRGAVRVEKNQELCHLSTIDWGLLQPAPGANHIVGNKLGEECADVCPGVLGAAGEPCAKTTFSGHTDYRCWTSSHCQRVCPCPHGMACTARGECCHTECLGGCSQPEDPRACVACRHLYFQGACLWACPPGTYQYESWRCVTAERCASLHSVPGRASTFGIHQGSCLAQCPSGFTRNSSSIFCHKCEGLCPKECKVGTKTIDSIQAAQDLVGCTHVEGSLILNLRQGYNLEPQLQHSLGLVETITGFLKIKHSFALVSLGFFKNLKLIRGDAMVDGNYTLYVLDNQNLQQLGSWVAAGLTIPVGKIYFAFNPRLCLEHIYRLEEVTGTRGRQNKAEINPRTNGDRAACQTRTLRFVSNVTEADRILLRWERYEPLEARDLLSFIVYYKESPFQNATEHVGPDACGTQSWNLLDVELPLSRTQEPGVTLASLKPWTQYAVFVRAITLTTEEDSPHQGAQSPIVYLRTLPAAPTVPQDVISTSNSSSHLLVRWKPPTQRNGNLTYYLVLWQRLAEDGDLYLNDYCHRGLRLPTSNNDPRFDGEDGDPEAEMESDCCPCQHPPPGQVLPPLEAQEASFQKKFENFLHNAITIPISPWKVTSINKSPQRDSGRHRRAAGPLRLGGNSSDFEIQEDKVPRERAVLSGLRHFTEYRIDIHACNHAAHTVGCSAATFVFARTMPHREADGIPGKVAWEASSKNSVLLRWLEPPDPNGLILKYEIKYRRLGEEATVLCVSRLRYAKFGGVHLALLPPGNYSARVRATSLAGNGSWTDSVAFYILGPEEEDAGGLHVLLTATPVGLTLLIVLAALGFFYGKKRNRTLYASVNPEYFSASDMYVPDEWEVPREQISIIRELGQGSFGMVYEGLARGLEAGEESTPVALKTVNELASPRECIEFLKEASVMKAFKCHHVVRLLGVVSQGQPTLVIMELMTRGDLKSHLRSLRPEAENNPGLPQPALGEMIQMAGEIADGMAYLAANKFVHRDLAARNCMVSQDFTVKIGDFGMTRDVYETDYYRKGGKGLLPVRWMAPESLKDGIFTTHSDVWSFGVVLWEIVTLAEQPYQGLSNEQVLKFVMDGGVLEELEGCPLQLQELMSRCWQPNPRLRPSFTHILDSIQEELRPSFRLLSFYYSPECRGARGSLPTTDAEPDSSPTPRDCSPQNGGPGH
UniProt P53667: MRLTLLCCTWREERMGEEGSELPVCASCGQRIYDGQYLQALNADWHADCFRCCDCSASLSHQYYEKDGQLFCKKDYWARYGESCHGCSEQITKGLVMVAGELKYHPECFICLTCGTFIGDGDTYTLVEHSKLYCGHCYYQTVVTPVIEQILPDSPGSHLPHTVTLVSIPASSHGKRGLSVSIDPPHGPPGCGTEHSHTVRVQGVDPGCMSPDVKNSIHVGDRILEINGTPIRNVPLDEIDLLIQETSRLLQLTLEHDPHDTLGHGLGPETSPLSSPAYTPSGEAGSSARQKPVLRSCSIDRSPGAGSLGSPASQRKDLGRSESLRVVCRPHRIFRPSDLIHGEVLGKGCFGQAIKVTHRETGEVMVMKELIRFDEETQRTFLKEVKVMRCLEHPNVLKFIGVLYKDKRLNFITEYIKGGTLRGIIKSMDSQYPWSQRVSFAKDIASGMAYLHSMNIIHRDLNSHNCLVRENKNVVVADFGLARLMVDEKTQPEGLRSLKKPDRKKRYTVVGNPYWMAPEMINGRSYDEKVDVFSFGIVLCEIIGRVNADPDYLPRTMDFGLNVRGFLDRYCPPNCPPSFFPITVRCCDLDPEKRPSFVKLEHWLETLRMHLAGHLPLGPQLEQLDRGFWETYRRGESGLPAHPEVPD
UniProt P53671: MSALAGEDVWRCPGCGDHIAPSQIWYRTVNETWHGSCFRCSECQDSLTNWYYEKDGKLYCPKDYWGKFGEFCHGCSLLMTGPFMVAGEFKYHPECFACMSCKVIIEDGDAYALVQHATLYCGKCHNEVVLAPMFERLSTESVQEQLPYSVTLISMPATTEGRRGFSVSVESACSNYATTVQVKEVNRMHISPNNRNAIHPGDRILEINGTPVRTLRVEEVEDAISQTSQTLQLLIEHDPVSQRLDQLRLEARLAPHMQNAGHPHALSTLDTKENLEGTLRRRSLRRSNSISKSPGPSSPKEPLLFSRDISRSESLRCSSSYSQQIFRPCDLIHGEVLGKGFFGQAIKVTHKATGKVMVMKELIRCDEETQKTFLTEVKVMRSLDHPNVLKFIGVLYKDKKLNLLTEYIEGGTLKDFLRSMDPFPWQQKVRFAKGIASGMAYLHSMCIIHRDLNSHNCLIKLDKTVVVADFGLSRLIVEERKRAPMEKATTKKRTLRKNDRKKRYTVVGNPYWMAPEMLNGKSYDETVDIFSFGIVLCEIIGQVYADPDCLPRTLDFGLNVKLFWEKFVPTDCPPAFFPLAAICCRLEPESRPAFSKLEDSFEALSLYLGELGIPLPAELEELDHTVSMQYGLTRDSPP
UniProt P07948: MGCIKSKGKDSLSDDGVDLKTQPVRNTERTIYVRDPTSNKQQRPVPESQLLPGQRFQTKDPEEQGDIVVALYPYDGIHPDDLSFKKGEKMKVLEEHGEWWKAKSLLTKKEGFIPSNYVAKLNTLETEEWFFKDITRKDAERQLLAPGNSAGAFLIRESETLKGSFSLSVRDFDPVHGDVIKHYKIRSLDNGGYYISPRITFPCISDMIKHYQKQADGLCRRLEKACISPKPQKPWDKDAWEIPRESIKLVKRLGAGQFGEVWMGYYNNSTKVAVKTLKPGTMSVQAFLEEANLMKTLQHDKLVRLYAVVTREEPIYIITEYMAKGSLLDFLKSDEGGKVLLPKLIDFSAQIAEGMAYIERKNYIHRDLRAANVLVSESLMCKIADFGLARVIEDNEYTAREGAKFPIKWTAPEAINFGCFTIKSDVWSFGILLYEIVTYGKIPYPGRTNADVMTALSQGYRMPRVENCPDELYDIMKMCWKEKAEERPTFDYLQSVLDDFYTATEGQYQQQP
UniProt P28482, whole entry: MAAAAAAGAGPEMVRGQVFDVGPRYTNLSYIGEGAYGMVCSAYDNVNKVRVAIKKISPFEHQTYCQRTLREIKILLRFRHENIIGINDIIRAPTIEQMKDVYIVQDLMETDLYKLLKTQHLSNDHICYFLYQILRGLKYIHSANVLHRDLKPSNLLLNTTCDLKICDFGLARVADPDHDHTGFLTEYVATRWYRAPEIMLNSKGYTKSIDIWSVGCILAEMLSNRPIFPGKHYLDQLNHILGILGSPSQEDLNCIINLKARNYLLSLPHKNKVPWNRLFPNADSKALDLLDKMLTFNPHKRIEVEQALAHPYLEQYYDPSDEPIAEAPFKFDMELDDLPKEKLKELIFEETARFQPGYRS
UniProt Q9BUB5: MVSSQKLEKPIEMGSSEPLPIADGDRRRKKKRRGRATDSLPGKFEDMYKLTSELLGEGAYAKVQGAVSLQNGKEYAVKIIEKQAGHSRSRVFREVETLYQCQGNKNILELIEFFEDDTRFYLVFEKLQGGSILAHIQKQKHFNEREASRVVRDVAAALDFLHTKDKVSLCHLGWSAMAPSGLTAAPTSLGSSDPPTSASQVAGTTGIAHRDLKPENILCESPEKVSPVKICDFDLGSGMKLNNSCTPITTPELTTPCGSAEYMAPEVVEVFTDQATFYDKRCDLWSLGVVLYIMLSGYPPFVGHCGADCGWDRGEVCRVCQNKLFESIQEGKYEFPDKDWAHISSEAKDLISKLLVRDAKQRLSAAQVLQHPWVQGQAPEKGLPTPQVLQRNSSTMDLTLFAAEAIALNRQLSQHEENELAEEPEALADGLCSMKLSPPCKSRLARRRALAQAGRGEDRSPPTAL
UniProt Q16620, whole entry, looked up: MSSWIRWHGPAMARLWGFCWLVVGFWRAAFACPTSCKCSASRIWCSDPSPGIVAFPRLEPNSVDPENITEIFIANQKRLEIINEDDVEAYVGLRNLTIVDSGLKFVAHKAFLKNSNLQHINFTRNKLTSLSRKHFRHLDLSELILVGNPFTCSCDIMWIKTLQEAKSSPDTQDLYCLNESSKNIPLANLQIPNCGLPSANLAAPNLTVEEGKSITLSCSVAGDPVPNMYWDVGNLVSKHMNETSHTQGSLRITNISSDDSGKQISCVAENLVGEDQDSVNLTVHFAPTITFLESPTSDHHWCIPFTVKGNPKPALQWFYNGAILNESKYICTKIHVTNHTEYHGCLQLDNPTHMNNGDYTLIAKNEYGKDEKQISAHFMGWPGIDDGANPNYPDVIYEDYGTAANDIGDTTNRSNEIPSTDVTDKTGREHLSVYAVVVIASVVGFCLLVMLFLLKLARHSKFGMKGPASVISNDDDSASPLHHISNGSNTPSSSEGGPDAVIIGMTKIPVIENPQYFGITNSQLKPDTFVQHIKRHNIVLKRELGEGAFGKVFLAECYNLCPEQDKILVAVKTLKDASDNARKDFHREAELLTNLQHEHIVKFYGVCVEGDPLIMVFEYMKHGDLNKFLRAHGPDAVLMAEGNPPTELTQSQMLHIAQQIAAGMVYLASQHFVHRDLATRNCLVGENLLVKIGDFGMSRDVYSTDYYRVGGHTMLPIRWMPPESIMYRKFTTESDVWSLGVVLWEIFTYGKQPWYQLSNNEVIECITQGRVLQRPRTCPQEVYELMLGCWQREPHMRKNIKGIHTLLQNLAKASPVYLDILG

Measured: number of time points

Cc1noc(C)c1-c1ccc(-c2cc(C(N)=O)c(NC(N)=O)s2)c(O[C@H]2CCNC2)c1 (10 µM)
0: all assays above

COc1cccc(-n2c(=O)[nH]c3cc(Cl)n(-c4ccc(-c5cccc(OC)c5O)cc4)c3c2=O)c1 (2.5 µM)
1: LMTK2
0: all other assays above

O=C(CNC(=O)c1ccc(-c2ccccc2)cc1)NC1CCCc2ccccc21 (stereo not given) [TAO Kinase inhibitor 1] (10 µM)
0: all assays above

Cc1c(CN2CCN(S(C)(=O)=O)CC2)sc2c(N3CCOCC3)nc(-c3cnc(N)nc3)nc12 (2.5 µM)
3: HER2
2: LIMK1
0: all other assays above

CC1CCc2nc(N)c(C#N)c(-c3cccnc3)c2C1 (stereo not given) (10 µM)
0: all assays above

Cc1cc(Nc2cc3ncccc3c(N[C@@H]3C[C@H]4CC[C@@H](C3)N4CCC#N)n2)n[nH]1 [Izencitinib] (10 µM)
0: all assays above

Nc1ncc(-c2cccc(N3CCNCC3)c2)cc1C(=O)Nc1ccncc1 [PKC-iota inhibitor 1] (10 µM)
0: all assays above

Fc1ccc(-c2nc(-c3c(F)cccc3F)[nH]c2-c2ccncc2)cc1 (10 µM)
1: LMTK2
0: all other assays above

Fc1ccc(-c2nc(-c3ccccc3F)[nH]c2-c2ccncc2)cc1 (2.5 µM)
0: all assays above

COc1ccc([C@H]2c3[nH]c4ccc(Cl)cc4c3CCN2C(=O)Oc2ccc(Cl)cc2)cc1 (2.5 µM)
0: all assays above

Cc1ccc(S(=O)(=O)Nc2ccccc2C=Nc2ccccc2NS(=O)(=O)c2ccc(C)cc2)cc1 (10 µM)
0: all assays above

CC(c1ccc(-c2cnc3c(-c4ccc(S(N)(=O)=O)c5ccccc45)cnn3c2)cc1)N1CCCC1 (stereo not given) (2.5 µM)
0: all assays above

O=C(Nc1cccnc1)c1cc(C(=O)c2c(F)cccc2Br)c[nH]1 (10 µM)
0: all assays above

COc1ccc2[nH]cc(/C=C3\C(=O)Nc4ccc(NC(=O)CCN5CCCCC5)cc43)c2c1 (2.5 µM)
0: all assays above

COC1(C(=O)N2Cc3nc(Cl)nc(N[C@H](C)c4cc(N)cc(C(F)(F)F)c4)c3C2)CCOCC1 (10 µM)
0: all assays above

O=C(Nc1ccc2[nH]nc(-c3ccncc3)c2c1)[C@@H]1CCN(CC(=O)N2CCN(c3ccc(-c4ncccn4)cc3)CC2)C1 (2.5 µM)
0: all assays above

NC1(Cc2ccc(Cl)cc2)CCN(c2ncnc3[nH]ccc23)CC1 (10 µM)
0: all assays above

C=CC(=O)Nc1cc2c(Nc3ccc(OCc4ccccn4)c(Cl)c3)ncnc2cc1OCCN1CCOCC1 (10 µM)
5: HER2
0: all other assays above

COc1cc2ncnc(Nc3cccc(Cl)c3)c2cc1OC (10 µM)
0: all assays above

Cn1c(=O)c(F)c(Nc2ccc(I)cc2F)c2c(=O)n(C[C@@H](O)CO)cnc21 (10 µM)
1: FLT3 | INSRR | MKNK1
0: all other assays above

COc1cc(N2CCC(N3CCN(C)CC3)CC2)ccc1Nc1ncc(Cl)c(Nc2ccccc2P(C)(C)=O)n1 [Brigatinib] (2 µM)
3: HER2
2: FYN
0: all other assays above

O=[N+]([O-])c1cc(C(F)(F)F)cc([N+](=O)[O-])c1NNC(=S)Nc1ccc(F)cc1 (10 µM)
0: all assays above

C[C@@H]1O[C@@H](O[C@H]2[C@H](Oc3cc(O)c4c(=O)cc(-c5ccc(O)cc5)oc4c3)O[C@H](CO)[C@@H](O)[C@@H]2O)[C@H](O)[C@H](O)[C@H]1O [Rhoifolin] (10 µM)
0: all assays above

Cc1c(NC(=O)OC[C@@H]2COCCN2)cn2ncnc(Nc3ccc4c(cnn4Cc4cccc(F)c4)c3)c12 (10 µM)
0: all assays above

O=C(/C=C/c1ccc(O)c(O)c1)OC1CC(OC(=O)/C=C/c2ccc(O)c(O)c2)(C(=O)O)CC(O)C1O (stereo not given) [1,3-Dicaffeoylquinic acid] (10 µM)
0: all assays above

O=c1cc(O)cc(/C=C/c2ccc(O)c(O)c2)o1 [Hispidin] (10 µM)
0: all assays above

COCCOc1ccc(-c2cn(-c3ccccc3)c3nc[nH]c(=O)c23)cc1 (10 µM)
0: all assays above

CC(C)c1cnc(-c2cc(Cl)ccc2F)cc1Nc1ccncc1C(=O)NC(CO)CO (2.5 µM)
0: all assays above

CC(=NNC(=O)c1ccc(C)c(Br)c1)c1ccc(O)cc1O [mTOR inhibitor-1] (2.5 µM)
1: FYN
0: all other assays above

CC1CN(C(=O)Nc2ccc(Cl)c(Cl)c2)C(=Nc2ccc(F)cc2)S1 (stereo not given) (10 µM)
0: all assays above

CC(C)CN[C@H]1CS(=O)(=O)C[C@@H]1S(=O)(=O)c1ccc(Cl)cc1 (10 µM)
1: HER2 | INSRR
0: all other assays above

Cc1ccc2nc(NC(=O)CSc3nc4c(c(=O)n3-c3ccccc3)SCC4)sc2c1 (2 µM)
0: all assays above

CN(CCNc1ccc2ncc(-c3ccc(C(N)=O)cc3)n2n1)C(=O)OC(C)(C)C (10 µM)
0: all assays above

COc1ccc(-c2ccc3c(N4CCOC[C@@H]4C)nc(N4CCOC[C@@H]4C)nc3n2)cc1CO (2.5 µM)
2: LYN
4: FLT3 | INSRR | LIMK1 | LIMK2
3: FYN | HER2 | IRAK3 | JAK1 | LMTK2 | MKNK1 | NTRK2
1: MAPK4
0: all other assays above

Cn1cc(-c2ccc(CNc3cc(-c4cnc5cc(OCCCN6CCCC6)ccn45)ncn3)cc2)cn1 (10 µM)
0: all assays above

O=C1c2ccc(Nc3ccc(F)cc3F)cc2CCc2ccc(OC[C@H](O)CO)cc21 [Skepinone-L] (2.5 µM)
0: all assays above

C[C@]1(O)CCC[C@@H]1n1c(=O)c(C(F)F)cc2cnc(NC3CCN(S(C)(=O)=O)CC3)nc21 (10 µM)
0: all assays above

N#CC(c1ccnc(NCCc2cccnc2)n1)c1nc2ccccc2s1 (stereo not given) (10 µM)
0: all assays above

Nc1ncnc2c1ncn2[C@@H]1O[C@H](CO)C[C@H]1O [Cordycepin] (10 µM)
0: all assays above

Cc1ccc(NC(=S)NNc2c([N+](=O)[O-])cc(C(F)(F)F)cc2[N+](=O)[O-])cc1Cl (10 µM)
0: all assays above

NCCN1CCN(C/C=C/C(=O)N2CCC[C@@H](n3nc(-c4ccc(Oc5ccccc5)cc4)c4c(N)ncnc43)C2)CC1 [Ibrutinib-MPEA] (10 µM)
0: all assays above

14 structures already listed, arranged by molar mass, falling.
O=C(Nc1ccc2[nH]nc(-c3ccncc3)c2c1)[C@@H]1CCN(CC(=O)N2CCN(c3ccc(-c4ncccn4)cc3)CC2)C1 (2.5 µM)
0: all assays above

C=CC(=O)Nc1cc2c(Nc3ccc(OCc4ccccn4)c(Cl)c3)ncnc2cc1OCCN1CCOCC1 (10 µM)
5: HER2
0: all other assays above

Cc1c(NC(=O)OC[C@@H]2COCCN2)cn2ncnc(Nc3ccc4c(cnn4Cc4cccc(F)c4)c3)c12 (10 µM)
0: all assays above

O=C(/C=C/c1ccc(O)c(O)c1)OC1CC(OC(=O)/C=C/c2ccc(O)c(O)c2)(C(=O)O)CC(O)C1O (stereo not given) [1,3-Dicaffeoylquinic acid] (10 µM)
0: all assays above

Cn1cc(-c2ccc(CNc3cc(-c4cnc5cc(OCCCN6CCCC6)ccn45)ncn3)cc2)cn1 (10 µM)
0: all assays above

CC(c1ccc(-c2cnc3c(-c4ccc(S(N)(=O)=O)c5ccccc45)cnn3c2)cc1)N1CCCC1 (stereo not given) (2.5 µM)
0: all assays above

COc1ccc([C@H]2c3[nH]c4ccc(Cl)cc4c3CCN2C(=O)Oc2ccc(Cl)cc2)cc1 (2.5 µM)
0: all assays above

O=C1c2ccc(Nc3ccc(F)cc3F)cc2CCc2ccc(OC[C@H](O)CO)cc21 [Skepinone-L] (2.5 µM)
0: all assays above

N#CC(c1ccnc(NCCc2cccnc2)n1)c1nc2ccccc2s1 (stereo not given) (10 µM)
0: all assays above

CC(C)CN[C@H]1CS(=O)(=O)C[C@@H]1S(=O)(=O)c1ccc(Cl)cc1 (10 µM)
1: HER2 | INSRR
0: all other assays above

COCCOc1ccc(-c2cn(-c3ccccc3)c3nc[nH]c(=O)c23)cc1 (10 µM)
0: all assays above

Fc1ccc(-c2nc(-c3c(F)cccc3F)[nH]c2-c2ccncc2)cc1 (10 µM)
1: LMTK2
0: all other assays above

Fc1ccc(-c2nc(-c3ccccc3F)[nH]c2-c2ccncc2)cc1 (2.5 µM)
0: all assays above

CC1CCc2nc(N)c(C#N)c(-c3cccnc3)c2C1 (stereo not given) (10 µM)
0: all assays above

Later entries:

CCN(CC)c1ccc2cc(C(=O)N3CCN(C(=O)C4=Cc5c(Br)cccc5S4(=O)=O)CC3)c(=O)oc2c1 (2 µM)
1: FYN
0: all other assays above

O=C(NCCO)c1ccc2c(c1)nc(Nc1cccc(Cl)c1)c1ccncc12 [CK2 inhibitor 2] (10 µM)
0: all assays above

CC(C)NC(=O)N1CC[C@H](NC2=Nc3cc(F)ccc3N(CC(F)F)c3ccc(Cl)cc32)C1 (10 µM)
0: all assays above

CC(C)CC1(O)CCN(C(=O)c2ccc(NS(=O)(=O)c3cccc4nccnc34)cc2)CC1 (10 µM)
0: all assays above

CN1C(=O)C(Cc2c[nH]c3ccccc23)NC1=S (stereo not given) [Necrostatin-1] (10 µM)
0: all assays above

C#CCN(C)C(=O)CCNc1nc(N2CCN(C(=O)C=C)CC2)c2cc(Cl)c(-c3c(O)cccc3F)c(F)c2n1 [ARS-1323-alkyne] (2.5 µM)
0: all assays above

COc1ccc(Cn2cc(C(=O)N=Nc3c(O)[nH]c4c(C)cccc34)nn2)cc1 [MARK4 inhibitor 1] (10 µM)
0: all assays above
